Reference: patent publication US20170327562A1
Results are given in words; binding and its absence hold for the method and conditions named. Some results given as binding are weak or reduced against the parent protein; the word gives no strength.

By UniProt entry, the sequences of proteins in these tests, tags left out. Where a name states a change or a piece, a line headed by the entry shows the natural chain unless it says otherwise. Residues count along the entry.
UniProt P56199, residues 167-364: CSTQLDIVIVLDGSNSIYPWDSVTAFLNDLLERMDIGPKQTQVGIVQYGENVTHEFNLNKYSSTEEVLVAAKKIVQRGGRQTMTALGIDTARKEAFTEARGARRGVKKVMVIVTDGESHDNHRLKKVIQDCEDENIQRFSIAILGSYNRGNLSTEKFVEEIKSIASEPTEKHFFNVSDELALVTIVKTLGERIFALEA
UniProt P02454: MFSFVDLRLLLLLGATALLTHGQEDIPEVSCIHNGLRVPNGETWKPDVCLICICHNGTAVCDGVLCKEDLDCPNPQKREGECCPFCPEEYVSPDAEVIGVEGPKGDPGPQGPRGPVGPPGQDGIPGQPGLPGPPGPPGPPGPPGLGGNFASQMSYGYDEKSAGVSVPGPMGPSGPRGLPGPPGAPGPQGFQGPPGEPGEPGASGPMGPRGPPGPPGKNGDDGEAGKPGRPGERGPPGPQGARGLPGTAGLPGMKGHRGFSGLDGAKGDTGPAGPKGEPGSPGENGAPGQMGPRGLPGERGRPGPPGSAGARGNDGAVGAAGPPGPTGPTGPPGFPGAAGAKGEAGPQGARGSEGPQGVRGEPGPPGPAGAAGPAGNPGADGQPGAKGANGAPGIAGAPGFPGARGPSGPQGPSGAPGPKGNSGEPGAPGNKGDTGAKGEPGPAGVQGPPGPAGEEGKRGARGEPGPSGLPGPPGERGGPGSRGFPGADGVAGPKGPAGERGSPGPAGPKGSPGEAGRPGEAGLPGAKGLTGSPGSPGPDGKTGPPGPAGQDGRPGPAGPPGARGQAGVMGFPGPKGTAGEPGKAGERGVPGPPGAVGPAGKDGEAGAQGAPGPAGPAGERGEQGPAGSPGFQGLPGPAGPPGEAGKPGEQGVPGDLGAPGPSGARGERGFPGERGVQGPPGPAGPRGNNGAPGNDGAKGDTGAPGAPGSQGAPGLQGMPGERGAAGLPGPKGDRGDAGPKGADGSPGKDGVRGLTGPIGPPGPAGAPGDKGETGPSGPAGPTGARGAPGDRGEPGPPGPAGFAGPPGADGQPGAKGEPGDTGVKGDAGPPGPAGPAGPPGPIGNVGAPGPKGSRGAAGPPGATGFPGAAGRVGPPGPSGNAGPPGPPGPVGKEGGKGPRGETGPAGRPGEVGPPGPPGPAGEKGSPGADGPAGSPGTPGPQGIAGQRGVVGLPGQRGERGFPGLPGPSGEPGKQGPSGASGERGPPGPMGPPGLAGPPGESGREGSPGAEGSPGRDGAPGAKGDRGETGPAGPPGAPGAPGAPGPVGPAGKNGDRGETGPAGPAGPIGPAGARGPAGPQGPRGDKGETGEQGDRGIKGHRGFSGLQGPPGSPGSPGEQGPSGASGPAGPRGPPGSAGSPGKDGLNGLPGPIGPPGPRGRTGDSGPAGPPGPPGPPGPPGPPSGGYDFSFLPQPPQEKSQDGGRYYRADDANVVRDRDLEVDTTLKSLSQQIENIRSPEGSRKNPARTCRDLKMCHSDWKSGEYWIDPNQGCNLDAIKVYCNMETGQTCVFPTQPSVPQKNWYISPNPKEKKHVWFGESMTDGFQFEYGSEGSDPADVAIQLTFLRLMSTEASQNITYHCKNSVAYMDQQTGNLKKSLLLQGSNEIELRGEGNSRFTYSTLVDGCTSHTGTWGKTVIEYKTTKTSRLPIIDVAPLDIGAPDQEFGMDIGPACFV

Key:
[1] = target: recombinant integrin α1 I domain (human) (UniProt P56199); assay: ELISA based binding assay
[2] = target: recombinant integrin α1 I domain (human) (UniProt P56199); assay: ELISA, coated 1 µg per well, 5 µM α1 I-domains
[3] = target: recombinant integrin α1 I domain (human) (UniProt P56199); assay: ELISA, 5 µM recombinant α1 I-domains on coated wells, anti-his-HRP detection

Measured: binding

rat tail derived collagen type I (from UniProt P02454 152-1207; P02466 86-1125) (ligand)
binds: [1] | [2] | [3]
